In brackets after ≈: the same amount, converted by molar mass.
Tested on: HIV-1 (RF)
Test: HIV RNA assay: microplate based compound evaluation in HIV-1 infected MT-2 cells (IC90)
Assay type: cell-based
Settings: Human immunodeficiency virus 1, MT2, 72 h; HIV-1 (RF) in MT-2 cells, 3 days; virus dilutions selected to give this value; read-out: IC90 (concentration of compound required to reduce the HIV RNA level by 90%)
Protocol: Plasmid pDAB 72 containing both gag and pol sequences of BH10 (bp 113-1816) cloned into PTZ 19R was prepared according to Erickson-Viitanen et al. AIDS Research and Human Retroviruses 1989, 5, 577. The plasmid was linearized with Bam HI prior to the generation of in vitro RNA transcripts using the Riboprobe Gemini system II kit (Promega) with T7 RNA polymerase. Synthesized RNA was purified by treatment with RNase free DNAse (Promega), phenol-chloroform extraction, and ethanol precipitation. RNA transcripts were dissolved in water, and stored at −70° C. The concentration of RNA was determined from the A260.
Biotinylated capture probes were purified by HPLC after synthesis on an Applied Biosystems (Foster City, Calif.) DNA synthesizer by addition of biotin to the 5′ terminal end of the oligonucleotide, using the biotin-phosphoramidite reagent of Cocuzza, Tet. Lett. 1989, 30, 6287. […]
MT-2 and MT-4 cells were maintained in RPMI 1640 supplemented with 5% fetal calf serum (FCS) for MT-2 cells or 10% FCS for MT-4 cells, 2 mM L-glutamine and 50 μg/mL gentamycin, all from Gibco. […] Infectious titers of HIV-1(RF) stocks were 1-3×10^7 PFU (plaque forming units)/mL as measured by plaque assay on MT-2 cells (see below). […]

IC90: 0.2 µg/mL (≈ 0.947 µM)
SMILES: Nc1ccn([C@H]2CC[C@@H](CO)O2)c(=O)n1 [ddC, 2′,3′-dideoxycytidine]
